In the supplement of paper PMC6078165:

System: BT20
Experiment: relative JC-1 red fluorescence (viability) vs pre-drug, coculture with fibroblast (fraction); higher = more viable cancer cells
Experimental: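 JC-1 labelled TNBC cells cocultured 1:1 (1,500 cells each) with CellTrace Violet stained primary or stromal fibroblasts in 384-well plates in FluoroBrite medium, treated with one of 42 anticancer drugs at 0.1, 1, 10 or 100 uM. JC-1 red fluorescence (mitochondrial integrity in cancer cells only) was read by plate reader every 8 h for 72 h. Values are normalised to each well's pre-drug value. The stock of one drug was tenfold lower, so its dose labels may be too high.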

Nc1ncn([C@@H]2O[C@H](CO)[C@@H](O)[C@H]2O)c(=O)n1 [Azacitidine]
relative JC-1 red fluorescence
Details | 8 h | 16 h | 24 h | 32 h | 40 h | 48 h | 56 h | 64 h | 72 h
10 µM, coculture fibroblast: C12385 | 0.8456 | 0.792 | 0.779 | 0.733 | 0.69 | 0.671 | 0.64 | 0.627 | 0.603
10 µM, coculture fibroblast: H6013 | 0.905 | 0.787 | 0.7532 | 0.7166 | 0.6944 | 0.6703 | 0.676 | 0.643 | 0.636
10 µM, coculture fibroblast: H6019 | 0.8561 | 0.829 | 0.874 | 0.829 | 0.806 | 0.81 | 0.7958 | 0.78553 | 0.7768
10 µM, coculture fibroblast: H6076 | 0.957 | 0.853 | 0.806 | 0.805 | 0.783 | 0.768 | 0.776 | 0.78 | 0.771
10 µM, coculture fibroblast: H6231 | 0.903 | 0.9034 | 0.835 | 0.767 | 0.727 | 0.67 | 0.615 | 0.584 | 0.55
10 µM, coculture fibroblast: HADF | 0.959 | 0.903 | 0.84 | 0.815 | 0.791 | 0.744 | 0.721 | 0.705 | 0.671
10 µM, coculture fibroblast: HCFa | 0.9208 | 0.8554 | 0.784 | 0.742 | 0.709 | 0.667 | 0.646 | 0.611 | 0.573
10 µM, coculture fibroblast: HCPF | 0.85 | 0.913 | 0.869 | 0.8262 | 0.8003 | 0.75 | 0.71 | 0.701 | 0.656
10 µM, coculture fibroblast: HHSteC | 0.9151 | 0.8901 | 0.8769 | 0.836 | 0.801 | 0.764 | 0.732 | 0.714 | 0.698
10 µM, coculture fibroblast: HMF | 0.809 | 0.915 | 0.83 | 0.792 | 0.763 | 0.708 | 0.668 | 0.625 | 0.587
10 µM, coculture fibroblast: HPFa | 0.8933 | 0.837 | 0.83 | 0.759 | 0.74 | 0.7 | 0.672 | 0.65 | 0.604
10 µM, coculture fibroblast: HUF | 0.8933 | 0.842 | 0.8347 | 0.763 | 0.725 | 0.689 | 0.676 | 0.667 | 0.653
10 µM, coculture fibroblast: Hs5 | 0.89 | 0.938 | 0.884 | 0.86088 | 0.8361 | 0.789 | 0.756 | 0.734 | 0.725
10 µM, coculture fibroblast: Hs27A | 0.818 | 0.824 | 0.819 | 0.893 | 0.843 | 0.886 | 0.914 | 0.813 | 0.783
10 µM, coculture fibroblast: Hs343T | 0.937 | 0.915 | 0.843 | 0.805 | 0.762 | 0.725 | 0.67 | 0.643 | 0.606
10 µM, coculture fibroblast: WS1 | 0.8495 | 0.781 | 0.727 | 0.67 | 0.616 | 0.576 | 0.538 | 0.508 | 0.481
100 µM, coculture fibroblast: C12385 | 0.8596 | 0.707 | 0.664 | 0.617 | 0.58 | 0.564 | 0.551 | 0.546 | 0.536
100 µM, coculture fibroblast: H6013 | 0.825 | 0.675 | 0.686 | 0.583 | 0.558 | 0.535 | 0.557 | 0.553 | 0.548
100 µM, coculture fibroblast: H6019 | 0.791 | 0.622 | 0.585 | 0.507 | 0.476 | 0.495 | 0.504 | 0.526 | 0.546
100 µM, coculture fibroblast: H6076 | 0.9958 | 0.779 | 0.562 | 0.524 | 0.504 | 0.49 | 0.488 | 0.497 | 0.492
100 µM, coculture fibroblast: H6231 | 0.863 | 0.903 | 0.783 | 0.73766 | 0.69622 | 0.6497 | 0.6097 | 0.585 | 0.55123
100 µM, coculture fibroblast: HADF | 0.923 | 0.826 | 0.818 | 0.763 | 0.768 | 0.738 | 0.73 | 0.711 | 0.675
100 µM, coculture fibroblast: HCFa | 0.822 | 0.619 | 0.558 | 0.502 | 0.477 | 0.462 | 0.455 | 0.445 | 0.42
100 µM, coculture fibroblast: HCPF | 0.88 | 0.8199 | 0.728 | 0.682 | 0.652 | 0.625 | 0.598 | 0.595 | 0.553
100 µM, coculture fibroblast: HHSteC | 0.8674 | 0.789 | 0.779 | 0.727 | 0.716 | 0.691 | 0.681 | 0.658 | 0.628
100 µM, coculture fibroblast: HMF | 0.9669 | 0.866 | 0.7634 | 0.72611 | 0.691 | 0.662 | 0.635 | 0.61 | 0.587
100 µM, coculture fibroblast: HPFa | 0.864 | 0.6341 | 0.615 | 0.546 | 0.538 | 0.518 | 0.525 | 0.514 | 0.491
100 µM, coculture fibroblast: HUF | 0.892 | 0.779 | 0.729 | 0.663 | 0.63 | 0.599 | 0.58 | 0.565 | 0.546
100 µM, coculture fibroblast: Hs5 | 0.879 | 0.785 | 0.684 | 0.652 | 0.626 | 0.6 | 0.59 | 0.576 | 0.561
100 µM, coculture fibroblast: Hs27A | 0.762 | 0.844 | 0.83 | 0.827 | 0.806 | 0.791 | 0.796 | 0.886 | 0.845
100 µM, coculture fibroblast: Hs343T | 0.9724 | 0.863 | 0.77 | 0.717 | 0.691 | 0.667 | 0.632 | 0.619 | 0.58
100 µM, coculture fibroblast: WS1 | 0.8169 | 0.667 | 0.618 | 0.555 | 0.523 | 0.506 | 0.491 | 0.487 | 0.485

Values are relative to the signal before dosing, not to a vehicle control; the signal also falls without drug.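 Fibroblast labels denote human fibroblasts, mainly primary ones from uterus (C12385, HUF), lung (H6013), bone (Hs27A), adrenal (HADF) and skin (WS1), plus mammary HMF and breast cancer-associated Hs343T. Cancer cells are basal-like or mesenchymal-like triple-negative breast cancer lines. A hit is a response shift exceeding 3x replicate standard deviation. The tissue of the other fibroblasts is not given here.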
